Values from PubChem BioAssay AID602196 (INSERM, 2012)

Screen: 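Modifiers of cisplatin sensitivity in A549 cells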
Cells: human A549 lung cancer cells
Knock-down reagent: siRNA pair against human genes
Duration: 48 h transfection before cisplatin; time from cisplatin to read-out not stated
Treatment: cisplatin at a dose killing half of control-siRNA cells; exact dose and duration not given
Measured: 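Shift in cisplatin death relative to control siRNA, from -50 (all cells die) to +50 (no cells die); siRNAs harmful on their own scored 0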
Scale: two-siRNA summed score (-2 to +2): higher = both siRNAs protect from cisplatin killing; -2 means both sensitise
Active means: 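Each siRNA scores 0 if harmful alone by LDH or WST-1, otherwise +1 if it reduces and -1 if it increases cisplatin killing; a gene is active when both siRNAs agree (sum +2 or -2)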
Meaning of the calls: active = both siRNAs shift cisplatin killing the same way; inactive = no consistent shift, or siRNA harmful alone
In all, the deposit lists about 23,000 reagents; this is a part drawn at random. 455 of all reagents (2%) were called active. 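Active includes both protection and sensitisation; some change values fall well beyond the stated -50 to +50 range.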 The numbers tell different reagents against one gene apart. Not all columns of the deposit are shown. Not stated in the record: the amount of reagent.

Depletion of CGRRF1 gave: two-siRNA summed score (-2 to +2) = 0; inactive. With knock-down of TECTA, the screen gave two-siRNA summed score (-2 to +2) = -1; inactive. LOC440761 showed two-siRNA summed score (-2 to +2) = 0; inactive. Silencing of OR6C76 gave: two-siRNA summed score (-2 to +2) = 0; inactive. LOC442647 showed two-siRNA summed score (-2 to +2) = 1; inactive. After knock-down of NT5C2, the screen gave two-siRNA summed score (-2 to +2) = 1; inactive.

Depletion of LOC92270 came out at: two-siRNA summed score (-2 to +2) = 0; inactive. Against ABLIM2, the values are two-siRNA summed score (-2 to +2) = 0; inactive. With knock-down of GPR32 the results were two-siRNA summed score (-2 to +2) = -1; inactive. Depletion of RGL1 resulted in: two-siRNA summed score (-2 to +2) = 0; inactive. REXO2 showed two-siRNA summed score (-2 to +2) = -1; inactive. Silencing of RAB33A gave: two-siRNA summed score (-2 to +2) = 0; inactive.

Depletion of STAM came out at: two-siRNA summed score (-2 to +2) = 1; inactive. Knock-down of AAGAB gave: two-siRNA summed score (-2 to +2) = 0; inactive. With knock-down of FBXO16 the results were two-siRNA summed score (-2 to +2) = 0; inactive. Against LOC441342 the deposit lists two-siRNA summed score (-2 to +2) = 0; inactive. Depletion of LOC390284 resulted in: two-siRNA summed score (-2 to +2) = 0; inactive. Silencing of CNTNAP2 gave: two-siRNA summed score (-2 to +2) = 0; inactive.

ZNF205 gave two-siRNA summed score (-2 to +2) = 0; inactive.

In a second layout: results already given
Target gene | reagent no. | two-siRNA summed score (-2 to +2) | activity call
FBXO16 | 1 | 0 | inactive
LOC441342 | 1 | 0 | inactive
LOC390284 | 1 | 0 | inactive
CNTNAP2 | 1 | 0 | inactive
ZNF205 | 1 | 0 | inactive

Continued.
Against GPLD1, the entry reads two-siRNA summed score (-2 to +2) = 0; inactive. Depletion of LTO1 came out at: two-siRNA summed score (-2 to +2) = 0; inactive. Knock-down of RBM14 #1 came out at: two-siRNA summed score (-2 to +2) = -1; inactive. Silencing of RBM14 #2 gave: two-siRNA summed score (-2 to +2) = 0; inactive. With knock-down of LOC402142 the results were two-siRNA summed score (-2 to +2) = 1; inactive. For TRH the deposit lists two-siRNA summed score (-2 to +2) = 0; inactive.

Knock-down of TMF1 came out at: two-siRNA summed score (-2 to +2) = -1; inactive. After knock-down of NUDCD2, the screen gave two-siRNA summed score (-2 to +2) = 1; inactive. NFIA showed two-siRNA summed score (-2 to +2) = -1; inactive. IMPA1 showed two-siRNA summed score (-2 to +2) = 0; inactive. Against LOC441313 the deposit lists two-siRNA summed score (-2 to +2) = -1; inactive. For BMP4, the values are two-siRNA summed score (-2 to +2) = 0; inactive.
